Assay in all cases: log2 fold change, soluble protein after heating vs DMSO (PISA); higher = thermal stabilisation; K562 cells, 10 uM, 30 min; active = over 0.2 and 3.5 SD of the protein, either way, in both replicates (recomputed)
Compound in one assay: C#Cc1cccc(Nc2ncnc3cc(OCCOC)c(OCCOC)cc23)c1 [erlotinib]
The method in brief:
(§1)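 Aliquots of K562 cells (2×10^6 cells/mL) treated with 10 μM compound for 30 min were heated for 3 min over 48°C-58°C. After pooling and extraction in PBS with 0.5% NP-40 at 4°C, soluble protein from a 21,000xg, 90 min spin was quantified by TMTpro 16plex LC-MS/MS with channel sums equalised. Thermal stability is expressed against control samples, from duplicates, as a log2 fold change.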

Sequences of proteins named here, by UniProt entry; tags and fusion partners are left off. A change or cut given only in a name is not applied to a line headed by its entry.
UniProt O95292, whole entry, looked up: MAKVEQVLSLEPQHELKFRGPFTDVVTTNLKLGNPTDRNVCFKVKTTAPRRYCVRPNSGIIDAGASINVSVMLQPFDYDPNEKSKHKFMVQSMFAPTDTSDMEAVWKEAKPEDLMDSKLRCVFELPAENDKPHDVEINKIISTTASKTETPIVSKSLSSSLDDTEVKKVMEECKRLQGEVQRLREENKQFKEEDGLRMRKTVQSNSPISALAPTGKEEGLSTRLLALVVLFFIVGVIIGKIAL
UniProt Q9H347: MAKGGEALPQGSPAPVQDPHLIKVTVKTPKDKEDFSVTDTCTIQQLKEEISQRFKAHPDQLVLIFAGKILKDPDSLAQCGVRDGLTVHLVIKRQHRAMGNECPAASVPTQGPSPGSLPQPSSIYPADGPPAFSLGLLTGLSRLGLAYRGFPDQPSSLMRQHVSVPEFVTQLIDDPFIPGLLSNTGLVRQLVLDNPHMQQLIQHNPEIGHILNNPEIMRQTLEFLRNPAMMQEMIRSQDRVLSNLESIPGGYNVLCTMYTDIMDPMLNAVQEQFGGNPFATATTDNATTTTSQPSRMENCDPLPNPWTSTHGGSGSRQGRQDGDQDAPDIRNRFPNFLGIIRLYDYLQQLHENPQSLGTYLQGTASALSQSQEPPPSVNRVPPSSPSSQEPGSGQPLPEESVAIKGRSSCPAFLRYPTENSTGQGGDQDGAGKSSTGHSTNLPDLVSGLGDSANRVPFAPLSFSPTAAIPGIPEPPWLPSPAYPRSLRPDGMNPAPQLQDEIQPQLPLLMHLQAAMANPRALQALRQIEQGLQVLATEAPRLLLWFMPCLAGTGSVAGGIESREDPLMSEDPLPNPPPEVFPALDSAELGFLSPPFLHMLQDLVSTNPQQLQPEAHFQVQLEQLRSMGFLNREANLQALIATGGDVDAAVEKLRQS
UniProt P45974: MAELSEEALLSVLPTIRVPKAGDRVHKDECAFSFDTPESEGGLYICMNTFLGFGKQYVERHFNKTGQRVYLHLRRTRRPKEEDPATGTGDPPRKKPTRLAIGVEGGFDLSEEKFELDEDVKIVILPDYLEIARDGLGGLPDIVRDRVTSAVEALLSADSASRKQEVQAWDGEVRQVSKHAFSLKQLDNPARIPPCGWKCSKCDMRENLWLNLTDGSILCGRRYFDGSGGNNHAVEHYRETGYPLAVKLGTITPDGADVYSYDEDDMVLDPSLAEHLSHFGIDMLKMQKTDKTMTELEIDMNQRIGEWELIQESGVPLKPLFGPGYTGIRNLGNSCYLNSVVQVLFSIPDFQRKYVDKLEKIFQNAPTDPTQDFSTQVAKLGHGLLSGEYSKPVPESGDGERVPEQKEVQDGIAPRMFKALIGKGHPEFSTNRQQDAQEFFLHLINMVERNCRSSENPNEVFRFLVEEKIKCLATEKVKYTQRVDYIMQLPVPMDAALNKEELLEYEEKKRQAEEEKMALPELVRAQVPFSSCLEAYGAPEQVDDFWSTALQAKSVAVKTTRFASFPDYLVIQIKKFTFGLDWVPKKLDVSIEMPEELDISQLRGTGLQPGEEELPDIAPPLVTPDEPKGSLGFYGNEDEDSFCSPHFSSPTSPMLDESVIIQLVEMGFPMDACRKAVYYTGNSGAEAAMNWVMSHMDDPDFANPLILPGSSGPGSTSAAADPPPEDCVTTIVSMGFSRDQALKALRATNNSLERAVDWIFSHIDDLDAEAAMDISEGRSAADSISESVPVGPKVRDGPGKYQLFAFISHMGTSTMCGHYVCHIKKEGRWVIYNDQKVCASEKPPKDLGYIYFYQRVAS
UniProt Q8IWV7: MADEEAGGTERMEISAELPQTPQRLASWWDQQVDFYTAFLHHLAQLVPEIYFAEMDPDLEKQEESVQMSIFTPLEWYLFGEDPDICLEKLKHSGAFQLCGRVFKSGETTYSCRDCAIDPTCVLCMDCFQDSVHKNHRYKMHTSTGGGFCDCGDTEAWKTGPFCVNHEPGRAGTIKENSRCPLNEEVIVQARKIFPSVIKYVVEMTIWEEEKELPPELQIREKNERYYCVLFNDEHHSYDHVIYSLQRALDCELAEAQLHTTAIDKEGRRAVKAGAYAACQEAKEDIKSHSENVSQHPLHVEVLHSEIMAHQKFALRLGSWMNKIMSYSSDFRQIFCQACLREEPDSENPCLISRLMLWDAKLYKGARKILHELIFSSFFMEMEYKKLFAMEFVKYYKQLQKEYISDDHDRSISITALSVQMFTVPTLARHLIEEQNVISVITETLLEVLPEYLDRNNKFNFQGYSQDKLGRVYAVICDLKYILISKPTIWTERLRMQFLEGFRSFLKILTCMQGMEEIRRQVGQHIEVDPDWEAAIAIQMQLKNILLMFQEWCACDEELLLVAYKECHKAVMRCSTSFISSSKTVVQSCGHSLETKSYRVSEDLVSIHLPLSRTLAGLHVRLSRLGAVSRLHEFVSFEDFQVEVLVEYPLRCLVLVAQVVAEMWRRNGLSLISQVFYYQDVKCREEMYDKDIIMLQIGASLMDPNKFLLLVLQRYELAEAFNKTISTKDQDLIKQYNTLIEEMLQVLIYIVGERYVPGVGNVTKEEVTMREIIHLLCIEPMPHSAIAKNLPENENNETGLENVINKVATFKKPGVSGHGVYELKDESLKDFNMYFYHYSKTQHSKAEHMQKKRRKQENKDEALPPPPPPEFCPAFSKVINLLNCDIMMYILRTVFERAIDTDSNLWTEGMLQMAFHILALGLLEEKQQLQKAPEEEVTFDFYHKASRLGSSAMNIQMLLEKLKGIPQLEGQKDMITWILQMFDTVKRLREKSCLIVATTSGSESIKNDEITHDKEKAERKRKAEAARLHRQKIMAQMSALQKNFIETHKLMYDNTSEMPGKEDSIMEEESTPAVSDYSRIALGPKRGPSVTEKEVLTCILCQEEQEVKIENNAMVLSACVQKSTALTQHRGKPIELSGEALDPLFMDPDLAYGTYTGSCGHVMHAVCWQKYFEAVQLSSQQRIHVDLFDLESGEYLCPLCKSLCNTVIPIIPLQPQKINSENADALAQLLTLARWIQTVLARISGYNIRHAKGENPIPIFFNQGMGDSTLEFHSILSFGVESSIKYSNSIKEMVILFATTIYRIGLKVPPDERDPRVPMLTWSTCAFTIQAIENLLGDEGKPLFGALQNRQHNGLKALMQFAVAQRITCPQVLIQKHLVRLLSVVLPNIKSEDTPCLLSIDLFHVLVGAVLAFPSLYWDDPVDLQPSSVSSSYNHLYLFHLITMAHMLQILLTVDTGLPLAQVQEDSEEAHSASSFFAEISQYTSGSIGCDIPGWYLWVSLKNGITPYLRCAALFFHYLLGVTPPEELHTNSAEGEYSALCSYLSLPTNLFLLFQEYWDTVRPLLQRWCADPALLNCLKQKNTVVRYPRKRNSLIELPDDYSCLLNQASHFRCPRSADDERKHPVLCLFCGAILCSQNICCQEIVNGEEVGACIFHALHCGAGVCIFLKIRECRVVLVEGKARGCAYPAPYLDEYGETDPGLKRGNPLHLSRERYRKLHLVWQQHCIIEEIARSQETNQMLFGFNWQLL
UniProt Q9NRR5, whole entry, looked up: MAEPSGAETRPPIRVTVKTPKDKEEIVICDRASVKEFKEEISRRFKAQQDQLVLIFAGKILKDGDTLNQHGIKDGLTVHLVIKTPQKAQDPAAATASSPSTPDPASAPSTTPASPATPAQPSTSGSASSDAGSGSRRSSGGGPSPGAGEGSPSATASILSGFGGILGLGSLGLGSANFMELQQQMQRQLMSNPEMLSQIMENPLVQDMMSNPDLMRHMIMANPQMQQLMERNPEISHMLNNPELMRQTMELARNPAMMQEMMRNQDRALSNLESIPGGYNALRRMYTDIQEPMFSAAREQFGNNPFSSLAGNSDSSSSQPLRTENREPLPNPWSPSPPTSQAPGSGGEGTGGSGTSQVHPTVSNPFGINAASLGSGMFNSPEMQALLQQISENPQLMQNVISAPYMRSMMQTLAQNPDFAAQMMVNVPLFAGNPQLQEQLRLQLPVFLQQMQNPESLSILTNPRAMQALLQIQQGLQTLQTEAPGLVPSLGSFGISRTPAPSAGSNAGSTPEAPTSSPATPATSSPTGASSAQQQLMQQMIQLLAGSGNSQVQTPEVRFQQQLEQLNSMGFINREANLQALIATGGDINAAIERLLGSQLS
UniProt Q8NFA0: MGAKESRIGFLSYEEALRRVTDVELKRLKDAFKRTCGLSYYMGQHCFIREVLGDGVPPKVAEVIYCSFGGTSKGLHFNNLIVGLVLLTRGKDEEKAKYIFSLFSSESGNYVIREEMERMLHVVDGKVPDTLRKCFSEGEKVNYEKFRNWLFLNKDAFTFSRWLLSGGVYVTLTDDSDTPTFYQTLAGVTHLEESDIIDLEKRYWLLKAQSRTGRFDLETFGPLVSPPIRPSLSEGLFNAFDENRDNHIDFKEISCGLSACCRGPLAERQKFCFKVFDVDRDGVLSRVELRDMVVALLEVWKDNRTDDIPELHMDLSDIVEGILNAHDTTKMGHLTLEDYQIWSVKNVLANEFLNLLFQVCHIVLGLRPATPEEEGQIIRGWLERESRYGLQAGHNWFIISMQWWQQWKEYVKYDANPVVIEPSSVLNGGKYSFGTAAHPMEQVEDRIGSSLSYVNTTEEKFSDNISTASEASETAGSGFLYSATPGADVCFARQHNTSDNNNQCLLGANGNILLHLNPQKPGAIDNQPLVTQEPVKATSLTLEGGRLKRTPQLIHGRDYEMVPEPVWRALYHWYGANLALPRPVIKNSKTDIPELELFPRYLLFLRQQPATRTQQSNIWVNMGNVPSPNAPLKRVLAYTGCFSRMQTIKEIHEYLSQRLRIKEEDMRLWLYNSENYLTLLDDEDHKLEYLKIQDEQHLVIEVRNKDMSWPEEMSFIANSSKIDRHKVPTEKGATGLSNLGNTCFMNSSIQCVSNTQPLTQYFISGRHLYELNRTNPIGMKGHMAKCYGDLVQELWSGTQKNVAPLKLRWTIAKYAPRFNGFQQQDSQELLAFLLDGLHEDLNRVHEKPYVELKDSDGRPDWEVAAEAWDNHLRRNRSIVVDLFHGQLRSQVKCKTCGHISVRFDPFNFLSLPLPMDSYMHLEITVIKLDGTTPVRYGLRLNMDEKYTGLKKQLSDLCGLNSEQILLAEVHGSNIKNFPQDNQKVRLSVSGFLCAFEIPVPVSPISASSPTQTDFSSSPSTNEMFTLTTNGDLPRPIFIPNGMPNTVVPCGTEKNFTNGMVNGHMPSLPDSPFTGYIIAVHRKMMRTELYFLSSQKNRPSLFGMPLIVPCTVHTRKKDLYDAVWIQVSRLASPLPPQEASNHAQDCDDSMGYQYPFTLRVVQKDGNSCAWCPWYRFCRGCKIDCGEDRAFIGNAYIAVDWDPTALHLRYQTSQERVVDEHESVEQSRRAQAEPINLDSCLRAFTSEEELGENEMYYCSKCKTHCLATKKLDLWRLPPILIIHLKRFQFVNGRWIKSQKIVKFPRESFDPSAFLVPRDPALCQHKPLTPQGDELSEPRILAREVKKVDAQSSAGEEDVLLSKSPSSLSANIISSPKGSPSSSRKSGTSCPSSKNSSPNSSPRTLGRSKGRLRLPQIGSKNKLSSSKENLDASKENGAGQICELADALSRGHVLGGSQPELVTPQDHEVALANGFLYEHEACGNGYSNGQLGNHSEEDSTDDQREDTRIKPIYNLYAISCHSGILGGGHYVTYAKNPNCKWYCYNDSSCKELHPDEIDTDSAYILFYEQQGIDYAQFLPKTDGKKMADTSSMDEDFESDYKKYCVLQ
UniProt P63027, whole entry, looked up: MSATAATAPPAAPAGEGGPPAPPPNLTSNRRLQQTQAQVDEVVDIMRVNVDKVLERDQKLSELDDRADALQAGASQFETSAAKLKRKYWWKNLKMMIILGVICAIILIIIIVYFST
UniProt Q9BV40: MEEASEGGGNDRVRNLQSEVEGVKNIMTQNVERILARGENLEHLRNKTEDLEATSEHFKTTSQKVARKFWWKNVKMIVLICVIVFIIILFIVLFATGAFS
UniProt P54578: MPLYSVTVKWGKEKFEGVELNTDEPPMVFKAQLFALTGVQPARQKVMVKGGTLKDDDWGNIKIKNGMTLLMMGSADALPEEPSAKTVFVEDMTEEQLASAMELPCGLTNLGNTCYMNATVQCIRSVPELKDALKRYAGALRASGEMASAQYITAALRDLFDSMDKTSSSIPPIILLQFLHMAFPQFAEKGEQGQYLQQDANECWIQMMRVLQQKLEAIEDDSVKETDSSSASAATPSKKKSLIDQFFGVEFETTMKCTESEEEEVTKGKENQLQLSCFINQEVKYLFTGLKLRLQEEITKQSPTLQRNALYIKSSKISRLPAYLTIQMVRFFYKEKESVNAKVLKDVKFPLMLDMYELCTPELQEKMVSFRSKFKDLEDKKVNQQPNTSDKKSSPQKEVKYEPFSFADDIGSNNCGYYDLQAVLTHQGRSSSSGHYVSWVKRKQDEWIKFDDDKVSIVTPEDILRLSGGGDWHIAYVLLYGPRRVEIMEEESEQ

Compound in assay [1]: C/C(=N\NC(=O)C1=CC(=CC=C1)S(=O)(=O)N2CCOCC2)/C3=C(C=CC(=C3)Cl)O
The method, boiled down:
as §1

Compound in assay [2]: C1=CC(=C(C=C1Cl)C2=NC3=NC=CN=C3C(=N2)NC4=CC=NC=C4)F
The method in brief: as §1

Compound in assay [3]: C1=CC(=CC=C1C2=NC3=C(N2)C=C(C=C3)C(=O)N)OC4=CC=C(C=C4)Cl
The method, boiled down:
as §1

Compound in assay [4]: C1=CC2=C(C=CC(=C2)/C=C\3/C(=O)NC(=NCC4=CC=CS4)S3)N=C1
The method, boiled down: as §1

Compound in assay [5]: C1=CC2=NC=CN=C2C=C1/C=C/3\C(=O)NC(=O)S3
The method in brief:
as §1

Compound in assay [6]: C1=CC=C(C=C1)C2=NC(=C(N2)C3=CC=NC=C3)C4=CC(=C(C=C4)Cl)O
The method in brief: as §1

Compound in assay [7]: C1=CC=C2C(=C1)C3=NNC4=CC=CC(=C43)C2=O
The method in brief:
as §1

Compound in assay [8]: C1CCN(C1)C(=O)NC2=CC=CC(=C2)NC3=NC=C(C(=N3)NCCC4=CN=CN4)Br
The method, boiled down:
as §1

Compound in assay [9]: C1CN(CCC1(CC2=CC=C(C=C2)Cl)N)C3=NC=NC4=C3C=CN4
The method in brief: as §1

This is one part of the list.

Consider 14 targets from the supplement of paper PMC10849652.

Regarding UTP4 (UniProt Q969X6), the log2 fold change in the assay with erlotinib was inactive: -0.05; in assay [1] it was inactive: -0.07; in assay [2], inactive: -0.009; in assay [3] it was inactive: 0.005; in [4], inactive: -0.082; in [5], inactive: 0.026. For the same target, the log2 fold change is inactive: -0.022 in [6], inactive: 0.012 in [7], inactive: 0 in assay [8] and inactive: 0.06 in assay [9].

In the case of USP6NL isoform 2 (UniProt Q92738), the log2 fold change with erlotinib was inactive: 0.156; in [1] it was inactive: -0.1; in [2], inactive: -0.016; in assay [3], inactive: 0.044; in [4], inactive: -0.034; in assay [6], inactive: -0.032. For the same target, the log2 fold change in assay [7] is inactive: 0.066; in [8], inactive: -0.11; in [9], inactive: 0.084.

For UPF2 (UniProt Q9HAU5), the log2 fold change with erlotinib was inactive: 0.112; in assay [1] it was inactive: -0.045; in assay [2] it was inactive: -0.301; in assay [3], inactive: 0.038; in assay [4], inactive: -0.007; in assay [5] it was inactive: -0.04. Besides, the log2 fold change was inactive: -0.007 in [6], inactive: -0.01 in assay [7], inactive: -0.007 in [8] and inactive: -0.15 in assay [9].

As for VAPB (UniProt O95292), the log2 fold change is inactive: -0.002 with erlotinib; inactive: 0.03 in assay [1]; inactive: 0.119 in assay [2]; inactive: -0.004 in [3]; inactive: -0.044 in [4]; inactive: 0.007 in [5]. Besides, the log2 fold change in assay [6] is inactive: -0.036; in assay [7], inactive: 0.005; in assay [8], inactive: -0.003; in assay [9], inactive: 0.041.

UBQLN3 (UniProt Q9H347): the log2 fold change with erlotinib was inactive: -0.116; in assay [1], inactive: -0.021; in assay [2] it was inactive: -0.079; in [3], inactive: 0.034; in assay [4], inactive: 0.159; in [6] it was inactive: 0.053. Further, the log2 fold change is inactive: -0.075 in [7], inactive: 0.074 in [8] and inactive: -0.039 in assay [9].

Consider USP5 (UniProt P45974), for which the log2 fold change with erlotinib is inactive: 0.002; in [1] it was inactive: 0.035; in [2] it was inactive: 0.037; in [3] it was inactive: -0.008; in assay [4], inactive: 0.012; in [5], inactive: 0.011. In addition, the log2 fold change is inactive: 0.014 in assay [6], inactive: 0.016 in assay [7], inactive: 0.012 in [8] and inactive: 0.012 in [9].

Turning to UBR1 (UniProt Q8IWV7), the log2 fold change with erlotinib was inactive: 0.233; in assay [1], inactive: 0.201; in assay [2] it was inactive: 0.006; in [3], inactive: -0.116; in [4], inactive: 0.009; in [5] it was inactive: -0.073. Further, the log2 fold change in assay [7] is inactive: -0.054.

Take UBQLN4 (UniProt Q9NRR5): the log2 fold change with erlotinib is inactive: 0.016; in assay [1] it was inactive: -0.005; in assay [2], inactive: 0.116; in [3], inactive: -0.008; in assay [4] it was inactive: -0.054; in [5], inactive: 0.075. For the same target, the log2 fold change in assay [6] is inactive: 0.013; in [7] it was inactive: 0.005; in [8], inactive: -0.049; in assay [9], inactive: 0.041.

UBLCP1 (UniProt Q8WVY7): the log2 fold change is inactive: 0.03 with erlotinib; inactive: 0.089 in assay [1]; inactive: 0.024 in assay [2]; inactive: -0.022 in assay [3]; inactive: -0.029 in [4]; inactive: 0.005 in assay [5]. Also, the log2 fold change is inactive: -0.019 in assay [6], inactive: 0.038 in assay [7], inactive: 0.035 in assay [8] and active: -0.262 in [9].

Turning to USP39 (UniProt Q53GS9), the log2 fold change was inactive: -0.019 in the assay with erlotinib; inactive: -0.03 in assay [1]; inactive: -0.105 in [2]; inactive: -0.017 in [3]; inactive: -0.014 in assay [4]; inactive: -0.003 in assay [5]. The log2 fold change in assay [6] was inactive: -0.05; in assay [7] it was inactive: 0.004; in assay [8], inactive: 0.007; in [9], inactive: -0.026.

USP32 (UniProt Q8NFA0): the log2 fold change with erlotinib is inactive: 0.389; in assay [1], inactive: -0.181; in assay [2], inactive: 0.102; in [3], inactive: -0.232; in assay [4], inactive: -0.182; in assay [6] it was inactive: 0. Also, the log2 fold change in assay [7] is inactive: 0.06; in [8] it was inactive: 0.014; in [9], inactive: -0.08.

Turning to VAMP2 (UniProt P63027), the log2 fold change with erlotinib is inactive: -0.042; in assay [1], inactive: 0.198; in assay [2], inactive: 0.08; in [3] it was inactive: -0.034; in assay [4], inactive: -0.125; in assay [5], inactive: 0.044. Besides, the log2 fold change in assay [6] was inactive: 0.035; in [7], inactive: 0.085; in assay [8], inactive: -0.201; in [9] it was inactive: -0.001.

With VAMP8 (UniProt Q9BV40), the log2 fold change in the assay with erlotinib was inactive: -0.004; in [1], inactive: -0.121; in [2], inactive: -0.004; in assay [3] it was inactive: 0.002; in assay [4], inactive: -0.091; in assay [5], inactive: 0.07. In addition, the log2 fold change in assay [6] was inactive: -0.016; in [7], inactive: -0.03; in assay [8], inactive: 0.02; in [9], inactive: 0.046.

On to USP14 (UniProt P54578), for which the log2 fold change was inactive: -0.027 with erlotinib; inactive: 0.03 in assay [1]; inactive: 0.084 in assay [2]; inactive: -0.014 in assay [3]; inactive: -0.04 in assay [4]; inactive: 0 in [5]. The log2 fold change in [6] was inactive: 0.02; in assay [7] it was inactive: 0.015; in assay [8], inactive: -0.016; in assay [9], inactive: -0.001.
